Source: patent publication US10520504B2 (priority 2014, dated 2019)

Assay: general procedure: Fmoc solid-phase peptide synthesis; Rink-amide ChemMatrix; DIC and oxyma; HBTU/DIPEA for fragment coupling
Settings: whole synthesis, detection at 490 nm (prep), scale 0.03 mmol

Substance: UBI29-41 conjugated with MR-AAPV-K(NBD)-PEG-OH (methyl red quencher, NBD label; enzyme cleavable peptide sequence)
- final HPLC purity: >95%
